Source: paper PMC12429265
These are yes or no findings as the source states them, for the method shown. In cells and extracts the contact can be indirect. Some results given as binding are weak or reduced against the parent protein; the word gives no strength.

Sequences of proteins named here, by UniProt entry; tags and fusion partners are left off.
UniProt A1Z8P9: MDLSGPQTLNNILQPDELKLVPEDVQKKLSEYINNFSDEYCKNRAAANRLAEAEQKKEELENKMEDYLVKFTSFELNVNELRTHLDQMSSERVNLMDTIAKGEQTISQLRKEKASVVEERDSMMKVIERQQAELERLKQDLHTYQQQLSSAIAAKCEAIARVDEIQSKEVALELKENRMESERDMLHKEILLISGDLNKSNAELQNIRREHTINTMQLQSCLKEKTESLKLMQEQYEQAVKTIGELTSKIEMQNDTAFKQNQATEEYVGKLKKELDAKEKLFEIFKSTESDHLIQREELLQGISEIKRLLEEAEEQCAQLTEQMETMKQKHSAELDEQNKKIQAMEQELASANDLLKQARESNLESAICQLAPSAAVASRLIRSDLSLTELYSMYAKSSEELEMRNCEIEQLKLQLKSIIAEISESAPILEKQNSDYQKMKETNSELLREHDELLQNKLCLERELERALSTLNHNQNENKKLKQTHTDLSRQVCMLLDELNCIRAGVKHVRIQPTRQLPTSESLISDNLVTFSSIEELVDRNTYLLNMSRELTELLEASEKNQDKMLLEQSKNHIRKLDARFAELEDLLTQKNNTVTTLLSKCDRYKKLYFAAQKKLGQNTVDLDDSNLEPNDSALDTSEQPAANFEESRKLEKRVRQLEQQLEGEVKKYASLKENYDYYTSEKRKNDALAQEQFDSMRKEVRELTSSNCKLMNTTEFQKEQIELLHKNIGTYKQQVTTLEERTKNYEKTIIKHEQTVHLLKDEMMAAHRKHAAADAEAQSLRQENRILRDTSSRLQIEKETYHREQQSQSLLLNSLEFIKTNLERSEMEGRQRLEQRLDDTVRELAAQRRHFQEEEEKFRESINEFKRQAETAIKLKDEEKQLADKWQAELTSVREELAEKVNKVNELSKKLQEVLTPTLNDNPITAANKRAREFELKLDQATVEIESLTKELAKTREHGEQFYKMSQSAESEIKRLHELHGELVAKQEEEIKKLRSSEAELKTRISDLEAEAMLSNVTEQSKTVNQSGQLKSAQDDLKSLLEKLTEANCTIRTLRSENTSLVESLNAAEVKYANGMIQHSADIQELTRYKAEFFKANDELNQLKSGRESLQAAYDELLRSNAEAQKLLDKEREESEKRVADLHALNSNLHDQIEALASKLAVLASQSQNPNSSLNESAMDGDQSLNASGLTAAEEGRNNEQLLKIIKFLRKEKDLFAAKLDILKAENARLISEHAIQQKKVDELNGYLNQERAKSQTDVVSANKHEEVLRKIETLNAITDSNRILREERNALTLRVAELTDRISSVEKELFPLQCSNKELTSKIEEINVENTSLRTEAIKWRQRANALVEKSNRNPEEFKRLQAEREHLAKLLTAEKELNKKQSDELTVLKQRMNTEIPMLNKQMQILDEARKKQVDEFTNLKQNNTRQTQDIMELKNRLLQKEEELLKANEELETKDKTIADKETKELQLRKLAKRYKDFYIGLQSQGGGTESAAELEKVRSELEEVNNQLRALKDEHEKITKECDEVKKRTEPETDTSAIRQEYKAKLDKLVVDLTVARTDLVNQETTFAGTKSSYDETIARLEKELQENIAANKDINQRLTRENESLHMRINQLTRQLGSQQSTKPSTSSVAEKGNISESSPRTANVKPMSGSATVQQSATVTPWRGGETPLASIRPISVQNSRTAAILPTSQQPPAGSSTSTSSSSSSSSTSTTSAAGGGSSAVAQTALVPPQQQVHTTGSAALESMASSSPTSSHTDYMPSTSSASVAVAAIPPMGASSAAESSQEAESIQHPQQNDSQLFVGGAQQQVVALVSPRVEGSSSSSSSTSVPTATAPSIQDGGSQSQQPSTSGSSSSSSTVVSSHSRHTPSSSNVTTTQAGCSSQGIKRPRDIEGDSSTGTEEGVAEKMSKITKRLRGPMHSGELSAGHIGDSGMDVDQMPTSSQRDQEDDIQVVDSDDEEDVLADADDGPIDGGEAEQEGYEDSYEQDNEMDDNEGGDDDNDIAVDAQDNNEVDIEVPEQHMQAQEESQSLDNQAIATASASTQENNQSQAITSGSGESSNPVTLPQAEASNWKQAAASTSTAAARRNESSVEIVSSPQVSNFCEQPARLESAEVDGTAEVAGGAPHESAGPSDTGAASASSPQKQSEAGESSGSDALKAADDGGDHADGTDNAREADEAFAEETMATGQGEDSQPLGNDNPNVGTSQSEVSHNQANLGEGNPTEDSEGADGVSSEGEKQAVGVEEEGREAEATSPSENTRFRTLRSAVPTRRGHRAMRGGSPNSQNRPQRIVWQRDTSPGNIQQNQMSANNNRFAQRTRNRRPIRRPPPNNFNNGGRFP
UniProt Q9VXE6: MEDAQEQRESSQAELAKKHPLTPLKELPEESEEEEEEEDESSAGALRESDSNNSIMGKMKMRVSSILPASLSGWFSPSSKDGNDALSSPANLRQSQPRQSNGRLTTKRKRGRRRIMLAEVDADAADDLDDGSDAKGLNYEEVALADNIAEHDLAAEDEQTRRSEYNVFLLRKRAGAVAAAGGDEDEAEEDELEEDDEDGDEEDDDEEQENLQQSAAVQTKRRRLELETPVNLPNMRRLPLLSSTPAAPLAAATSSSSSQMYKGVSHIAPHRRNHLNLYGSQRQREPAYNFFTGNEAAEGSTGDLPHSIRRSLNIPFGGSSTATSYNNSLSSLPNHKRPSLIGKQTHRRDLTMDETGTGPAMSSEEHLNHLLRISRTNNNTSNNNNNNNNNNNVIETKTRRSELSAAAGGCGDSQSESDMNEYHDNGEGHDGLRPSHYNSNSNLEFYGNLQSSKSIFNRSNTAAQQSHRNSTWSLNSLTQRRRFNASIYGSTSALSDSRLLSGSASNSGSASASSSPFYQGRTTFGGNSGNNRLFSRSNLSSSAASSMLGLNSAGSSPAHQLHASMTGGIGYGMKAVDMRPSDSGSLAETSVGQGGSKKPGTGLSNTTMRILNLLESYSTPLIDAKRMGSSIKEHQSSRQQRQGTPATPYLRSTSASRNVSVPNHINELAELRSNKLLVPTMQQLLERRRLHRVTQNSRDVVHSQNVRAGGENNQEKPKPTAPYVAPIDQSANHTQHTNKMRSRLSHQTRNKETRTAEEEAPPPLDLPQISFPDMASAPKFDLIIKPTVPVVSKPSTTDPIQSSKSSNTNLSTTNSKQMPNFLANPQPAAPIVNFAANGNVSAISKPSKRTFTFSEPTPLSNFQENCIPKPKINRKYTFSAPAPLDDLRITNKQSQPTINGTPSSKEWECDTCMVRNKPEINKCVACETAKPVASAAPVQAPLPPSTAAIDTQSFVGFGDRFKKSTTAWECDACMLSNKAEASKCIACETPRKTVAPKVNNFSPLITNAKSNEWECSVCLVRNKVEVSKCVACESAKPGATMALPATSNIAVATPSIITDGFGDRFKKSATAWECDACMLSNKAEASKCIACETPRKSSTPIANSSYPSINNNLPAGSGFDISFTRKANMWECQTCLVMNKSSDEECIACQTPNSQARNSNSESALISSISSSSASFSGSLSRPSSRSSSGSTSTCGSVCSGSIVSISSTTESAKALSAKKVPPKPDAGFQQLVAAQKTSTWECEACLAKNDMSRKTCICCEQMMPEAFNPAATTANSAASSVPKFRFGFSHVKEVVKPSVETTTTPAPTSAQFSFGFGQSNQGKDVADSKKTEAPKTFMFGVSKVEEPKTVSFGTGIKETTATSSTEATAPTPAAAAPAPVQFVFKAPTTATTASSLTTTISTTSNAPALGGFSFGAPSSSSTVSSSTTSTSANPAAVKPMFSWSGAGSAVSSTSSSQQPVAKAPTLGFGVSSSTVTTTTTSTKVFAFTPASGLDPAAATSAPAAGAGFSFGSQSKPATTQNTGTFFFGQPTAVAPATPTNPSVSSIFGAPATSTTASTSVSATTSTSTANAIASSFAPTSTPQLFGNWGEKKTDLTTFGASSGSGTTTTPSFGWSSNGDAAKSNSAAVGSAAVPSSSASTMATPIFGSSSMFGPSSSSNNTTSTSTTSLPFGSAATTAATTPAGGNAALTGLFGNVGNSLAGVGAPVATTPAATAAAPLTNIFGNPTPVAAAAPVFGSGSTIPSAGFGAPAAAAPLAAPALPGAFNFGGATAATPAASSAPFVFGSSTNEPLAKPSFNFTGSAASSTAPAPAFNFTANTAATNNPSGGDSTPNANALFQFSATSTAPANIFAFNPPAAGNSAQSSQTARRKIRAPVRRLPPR

T1: ENY2 (Drosophila (endogenous in embryos)) (UniProt Q9VYX1)
T1 sequence: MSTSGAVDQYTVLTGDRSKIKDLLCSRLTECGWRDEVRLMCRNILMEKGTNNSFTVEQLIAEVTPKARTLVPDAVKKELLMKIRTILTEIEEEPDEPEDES

T2: PCID2 (Drosophila (endogenous in embryos)) (UniProt Q9VTL1)
T2 sequence: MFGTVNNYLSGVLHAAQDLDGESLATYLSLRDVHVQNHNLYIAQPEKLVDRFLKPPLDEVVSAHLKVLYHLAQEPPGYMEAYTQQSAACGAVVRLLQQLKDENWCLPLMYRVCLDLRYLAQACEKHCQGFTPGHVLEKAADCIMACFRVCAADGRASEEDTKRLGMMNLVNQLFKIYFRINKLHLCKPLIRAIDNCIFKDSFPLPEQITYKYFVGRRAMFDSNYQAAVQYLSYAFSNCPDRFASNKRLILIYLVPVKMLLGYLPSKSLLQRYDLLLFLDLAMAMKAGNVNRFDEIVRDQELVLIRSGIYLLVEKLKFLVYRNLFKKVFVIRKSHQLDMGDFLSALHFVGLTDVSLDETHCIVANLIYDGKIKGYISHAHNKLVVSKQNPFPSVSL


Key:
Assay in all cases: co-IP; endogenous proteins; nuclear extract from 0 to 12 h Drosophila embryos treated with DNase and RNase; polyclonal antibodies against TREX-2 subunits, Nup153 or TPR on protein A-Sepharose; IP buffer 25 mM Tris-HCl pH 7.9, 10% glycerol, 0.1% NP-40, 0.5 mM DTT, 5 mM MgCl2, 100 mM KCl; washes with 500 mM KCl and 100 mM KCl; Western blot
[1] = biological target: T1, ENY2 (Drosophila (endogenous in embryos))
[2] = biological target: T2, PCID2 (Drosophila (endogenous in embryos))
[3] = biological target: TPR/Megator (Drosophila (endogenous in embryos)) (UniProt A1Z8P9)
[4] = biological target: Nup153 (Drosophila (endogenous in embryos)) (UniProt Q9VXE6)

Row | Molecule | binding [1] | binding [2] | binding [3] | binding [4]
1 | Nup153 (from UniProt Q9VXE6 1-1883) | binds | binds |  | 
2 | ENY2 (protein, UniProt Q9VYX1 1-101) MSTSGAVDQYTVLTGDRSKIKDLLCSRLTECGWRDEVRLMCRNILMEKGTNNSFTVEQLIAEVTPKARTLVPDAVKKELLMKIRTILTEIEEEPDEPEDES |  |  | binds weakly | binds
